# Assay results reported in the supplement of paper PMC10338343.
# ± gives the standard deviation. This is a selection; strong and weak results do not stand in their true shares. Many of these values have a large error.
# Test system: MILI (PIWIL2) piRISC loaded with Kctd7 piRNA (26 nt)
# Assay: pre-steady-state target cleavage rate (min^-1); MIWI and MILI are mouse PIWI proteins and EfPiwi is from a freshwater sponge; tags in brackets are library labels; higher = faster piRNA-guided slicing of the target
# Conditions: guide: Kctd7 piRNA 5'p-UGUUAAUCUCUCAGAGAAGGUGACAG; auxiliary factor: 500 nM mouse GTSF1
# Protocol: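 Cleave-'n-Seq: a library of target RNAs (target site embedded in constant flanks, ACAGCATTCCGCGTTAGTGATATCCG... 5' flank; DNA-blocked outside the site) at 0.1 nM was incubated with 1 nM active mouse MILI or MIWI piRISC (synthetic 5'-monophosphorylated piRNA guide) with or without 500 nM mouse GTSF1 at 33 °C for 1 min to 16 h. Uncleaved targets were sequenced and normalised to non-target controls, and the pooled three trials were fitted to a burst-and-steady-state model to give the pre-steady-state cleavage rate (min^-1; k3 is constrained to at most 1e-4). Sequence is the target site only; target names encode pairing extent (gX:gY) and contiguous / 1-mismatch / 2-mismatch / bulge geometry. Fits with R² ≤ 0 are excluded.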
row,Sequence,pre-steady-state target cleavage rate
1,UAGUCUGUCUCCUUCUCUGAGAGAUUAUGA,0.0111 ± 0.0041
2,UAGUGUGUCACCUACUCUGAGAGAUUUUGA,0.0414 ± 0.016
3,UAGUGUGUCACCUUCUCUGAGAGAUUCACA,0.239 ± 0.049
4,UAGUGACUCACCUUCUCUGAGAGAUUAAACA,0.251 ± 0.035
5,UAGUGACAGACCUUCUCUCUGAGAUUAAGA,0.000531 ± 0.015
6,UAGUGAGUGUCCUUCUCUGAGAGAUAUUGA,0.000691 ± 0.0074
7,UAGUGACAGUGGUACUCUGAGAGAUUAACA,0.000403 ± 0.0099
8,UAGUGACAGACCUUCUCUGGAGAUUAACA,0.00288 ± 0.0042
9,UAGUGACAGUGCUAGUCUGAGAGAUUAACA,0.00192 ± 0.0045
10,UAGUGACAGACCUUCUCCUGAGAGAUUAACA,0.00145 ± 0.0069
11,UAGUGACAGUGGAAGUCUGAGAGAUUAACC [g2:g15:cont:t1C],0.000685 ± 0.0066
12,UAGUGAGUCACCUUGUCUGAGAGAUAUUGA,0.00132 ± 0.0082
13,UAGUGACAGUGGUUCUCUGAGAGCUUAACA,0.000865 ± 0.0061
14,UAGUGACAGUGGAAGACAGAGACAUUAACA,0.000102 ± 0.06
15,UAGUGACAGUGCUUCUCUGAUGAGAUUAACA,0.000534 ± 0.0058
16,UAGUGACUCACCUUCUCUGAGUGAAUAACA,0.00121 ± 0.0077
17,UAGUGACAGUGGAUCUUUGAGAGAUUAACA,0.00031 ± 0.0099
18,UAGUGACAGUGGAUCUCUGAGUGAUUAACA,0.000112 ± 0.029
19,UAGUGACAGAGCUUCUCUGAGAGAUUAUGA,0.00158 ± 0.0075
20,UAGUCUGUCUCCUUCUCUGAGAGAUUUUGA,0.00342 ± 0.0038
21,UAGUGACAGUCCUUCUCUGAGUGAUUAUCA,0.00057 ± 0.0066
22,UAGUGAGUCACCUUCUCUGAGAGAUUCAACA,0.279 ± 0.054
23,UAGUGACAGUCCUUCUCUCAGAGAAUAACA,0.000691 ± 0.011
24,UAGUGACACACCUUCUCUCAGACAUUAACA,0.0383 ± 0.011

# For convenience, part of the list above:
row,Sequence,pre-steady-state target cleavage rate
10,UAGUGACAGACCUUCUCCUGAGAGAUUAACA,0.00145 ± 0.0069
11,UAGUGACAGUGGAAGUCUGAGAGAUUAACC [g2:g15:cont:t1C],0.000685 ± 0.0066
12,UAGUGAGUCACCUUGUCUGAGAGAUAUUGA,0.00132 ± 0.0082

# Going on with the list:

row,Sequence,pre-steady-state target cleavage rate
1,UAGUGACAGUGGAAGACUGUCAGAUUAACA,0.000366 ± 0.028
2,UAGUGACUCACCAUCUCUGAGAGAUUUUGA,0.00175 ± 0.0052
3,UAGUGUGUGUCCUUCUCUGAGAGAUUAUGA,0.00211 ± 0.006
4,UAGUGAGUCACCUUCUCUGAGACAUUAUCA,0.00196 ± 0.0078
5,UAGUGACAGUGCUUCUCACAGAGAUUAACA,0.00247 ± 0.0045
6,UAGUGACAGACCUUCUCUGAGAGAUAACA,0.00185 ± 0.0063
7,UAGUGUGUCACCUUUCUGAGAGAUUAACA,0.0596 ± 0.013
8,UAGUGUGUGUGCUUCUCUGAGAGAUAUUGA,0.000443 ± 0.014
9,UAGUCUGUCACCUUCUCUGACUCAUAUUGA,0.000819 ± 0.0071
10,UAGUGACACACCUUCUGACUCUCUAAUUGA [g15:g22:cont:t1A],0.00112 ± 0.0069
11,UAGUGAGUACCUUCUCUGAGAGAUUAACA,0.113 ± 0.014
12,UAGUGACAGUGGAUCUCUGAGACUAUAACA,0.000799 ± 0.021
13,UAGUGAGUCAGGAUCUCUGAGAGAUAUUGA,0.000326 ± 0.015
14,UAGUCUGUCACCUUCUCUGACAGUUUAACA,0.00252 ± 0.0046
15,UAGUGACAGUCCUUCUCUGAGAGAAAUACA,0.000372 ± 0.014
16,UAGUGUGUCACCAAGUCUGAGAGAUUAUGA,0.000584 ± 0.01
17,UAGUGACAGUGGUUCUCUGAGAGAUUAAGA,0.000248 ± 0.015
18,UAGUCUGUCACCUUCUCUGACUGAUUAACA,0.00248 ± 0.0042
19,UAGUGACAGUGGAACUCUGAGAUGAUUAACA,0.000223 ± 0.027
20,UAGUGACAGUGGUUCUCUGAGAGAAUUAACA,0.000613 ± 0.012
21,UAGUGACUCACCUUCUCGAGAGAUUAACA,0.02 ± 0.0065
22,UAGUGAGUCACCUUCCUCUGAGAGAUUAACA,0.148 ± 0.019
23,UAGUGACAGACCUUCUCUGAGAGUUUUACA,0.00143 ± 0.0097
24,UAGUCUGUCACGUUCUCUGAGUGAUUAACA,0.00118 ± 0.004

row,Sequence,pre-steady-state target cleavage rate
1,UAGUGACAGUGCUUCUCUCUGAGAUUAAGA,0.000323 ± 0.014
2,UAGUGACAGUGGUUCUCUGAGAAAUUAACA,0.000119 ± 0.037
3,UAGUGACAGUCCUUCUGUGACAGAUUAACA,0.00187 ± 0.0045
4,UAGUCUGUCACCUUGACUGAGAGAUUUUGA,0.000521 ± 0.015
5,UAGUCUGUCACCUUCUCAGAGUGAUUAACA,0.00411 ± 0.0045
6,UAGUGACAGUGGAUGUCUGAGAGAUUAACA,0.000991 ± 0.0031
7,UAGUGACAGUCCUUCUCUGAGAGAAUAUCA,0.000243 ± 0.02
8,UAGUGAGUCACCUUCUCUGUCUGAUUAAGA,0.00143 ± 0.012
9,UAGUGUGUCUCCUUCUCUGAGACAUUAACA,0.00482 ± 0.0038
10,UAGUGAGUCACCUUCUCUGAGAGACUUAACA,0.137 ± 0.032
11,UAGUCUGUCUCCUUCUCUGAGUGAUUAACA,0.00144 ± 0.0043
12,UAGUCUGUCACCAACUCUGAGAGAUAUUGA,0.000437 ± 0.0074
13,UAGUGACAGUGGAAGAGAGACACAUUAACA,0.000261 ± 0.029
14,UAGUGACAGUGCUUCUCAGAGAGUUUAACA,0.00211 ± 0.0054
15,UAGUGAGUCACCUUCUCUGAGACUAUAUGA,0.00135 ± 0.0086
16,UAGUGACUCACGUUCUCUGAGAGAUAUUGA,0.000101 ± 0.031
17,UAGUGACAGUGGUUCUCUGAGAGAUUAGACA,0.000791 ± 0.0076
18,UAGUGACAGUCCUUCUCGUGAGAGAUUAACA,0.000837 ± 0.009
19,UAGUGACUCACCUUCUCUGACUCAUUAACA,0.00102 ± 0.009
20,UAGUCUGUGUCCUUCUCUGAGAGAUUUUGA,0.00127 ± 0.0056
21,UAGUGUGUCAGGUUCUCUGAGAGAUUUUGA,0.00129 ± 0.01
22,UAGUGAGUCACCUUCAGUGAGAGAUUUUGA,0.00533 ± 0.0054
23,UAGUGACAGUGGAAGAGUGAGACAUAAACA,0.000203 ± 0.029
24,UAGUGACAGACGAUCUCUGAGAGAUUAUGA,0.000522 ± 0.013
